How the values were obtained:
Format in all cases: cell-based, mouse
[1] = tested on: DYT-TOR1A MEF EVs; test: Quantitative LC-MS/MS proteomics of MEF EVs, DYT-TOR1A genotype vs WT; conditions: Directionality of protein change in MEFs EV dataset between WT and DYT1 derived MEFs
[2] = tested on: DYT-TOR1A MEF EVs; test: Quantitative LC-MS/MS proteomics of EVs from drug-treated DYT-TOR1A MEF cultures (ritonavir, salubrinal); conditions: for DYT1/DYT1 + Sal: Directionality of protein change in MEFs EV dataset in DYT1 derived MEFs treated with salubrinal; for RTV Corrective Direction: Ritonavir; for RTV Corrective Direction / Sal Corrective Direction: was treatment in MEF's in the direction of WT-like?; for Sal Corrective Direction: Salubrinal; for DYT1/DYT1 + RTV: Directionality of protein change in MEFs EV dataset in DYT1 derived MEFs treated with Ritonavir
[3] = tested on: WT MEF EVs; test: Quantitative LC-MS/MS proteomics of EVs from ISRIB-treated WT MEF cultures; conditions: Directionality of protein change in MEFs EV dataset in WT derived MEFs treated with ISRIB

B1: Tgfb2 (protein, UniProt P27090 303-414, looked up)
Transforming growth factor …: ALDAAYCFRNVQDNCCLRPLYIDFKRDLGWKWIHEPKGYNANFCAGACPYLWSSDTQHTKVLSLYNTINPEASASPCCVSQDLEPLTILYYIGNTPKIEQLSNMIVKSCKCS
- DYT1/WT [1]: DOWN
- DYT1/DYT1 + Sal [2]: DOWN
- RTV Corrective Direction [2]: No
- Sal Corrective Direction [2]: Yes
- WT + ISRIB/WT [3]: DOWN

B2: Ehd4 (protein, UniProt Q9EQP2 1-541, looked up)
EH domain-containing protein 4: MFSWMGRQAGGRERSGGMDAVQTVTGGLRSLYQRKVLPLEEAYRFHEFHSPALEDADFENKPMILLVGQYSTGKTTFIRYLLEQDFPGMRIGPEPTTDSFIAVMYGETEGSTPGNALVVDPKKPFRKLSRFGNAFLNRFMCSQLPNQVLKSISIIDSPGILSGEKQRISRGYDFCQVLQWFAERVDRIILLFDAHKLDISDEFSEAIKAFRGQDDKIRVVLNKADQVDTQQLMRVYGALMWSLGKVINTPEVLRVYIGSFWAQPLQNTDNRRLFEAEAQDLFRDIQSLPQKAAVRKLNDLIKRARLAKVHAYIISYLKKEMPNMFGKENKKRELIYRLPEIYVQLQREYQISAGDFPEVKAMQEQLENYDFTKFHSLKPKLIEAVDNMLTNKISSLMGLISQEEMNMPTQMVQGGAFDGTTEGPFNQGYGEGAKEGADEEEWVVAKDKPVYDELFYTLSPINGKISGVNAKKEMVTSKLPNSVLGKIWKLADCDCDGMLDEEEFALAKHLIKIKLDGYELPNSLPPHLVPPSHRKSLPKAD
- DYT1/WT [1]: DOWN
- DYT1/DYT1 + RTV [2]: DOWN
- RTV Corrective Direction [2]: Yes
- Sal Corrective Direction [2]: No
- WT + ISRIB/WT [3]: DOWN

B3: Sec31a (protein, UniProt Q3UPL0 1-1230, looked up)
Protein transport protein …: MKLKEIDRTAMQAWSPAQNHPIYLATGTSAQQLDATFSTNASLEIFELDLSDPSLDMKSCATFSSSHRYHKLIWGPHKMDSKGDVSGVLIAGGENGNIILYDPSKIIAGDKEVVIAQKDKHTGPVRALDVNIFQTNLVASGANESEIYIWDLNNFATPMTPGAKTQPPEDISCIAWNRQVQHILASASPSGRATVWDLRKNEPIIKVSDHSNRMHCSGLAWHPDVATQMVLASEDDRLPVIQMWDLRFASSPLRVLENHARGILAVAWSMADPELLLSCGKDAKILCSNPNTGEVLYELPTNTQWCFDIQWCPRNPAVLSAASFDGRISVYSIMGGSIDGLRQKQVDKLSSSFGNLDPFGTGQPLPPLQIPQQSAQHSIVLPLKKPPKWIRRPVGASFSFGGKLVTFESVAVPLQQGAEQQRRQPVFISQVVTEKDFLNRSAQLQHAVQSQGFIGYCQKKIEASQTEFEKNVWSFLKVNFEEDSRGKYLELLGYRKEDLGQKIALALNKVDGPDVALKDSDQVAQSDGEESPAAEEQLLGERIKEEKQECDFLPSAGGTFNISVSGDIDGLITRALLTGNFESAVDLCLHDNRMADAIILAIAGGQELLAQTQKKYFAKSQSKITRLITAVVMKNWREIVESCDLKNWREALAAVLTYAKPDEFSALCDLLGTRLEREGDSLLRTQACLCYICAGNVERLVACWTKAQDGSSPLSLQDLIEKVVILRKAVQLTQALDTNTVGALLAEKMSQYASLLAAQGSIAAALAFLPDNTNQPNIVQLRDRLCKAQGKPVSGQESSQSPYERQPLSKGRPGPVAGHSQMPRVQTQQYYPHGENPPPPGFIMQGNVIPNPAAPLPTAPGHMPSQLPPYPQPQPYQPAQQYSFGTGGAAAYRPQQPVAPPASNAYPNTPYISPVASYSGQPQMYTAQQASSPTSSSAASFPPPSSGASFQHGGPGAPPSSSAYALPPGTTGTPPAASELPASQRTENQSFQDQASILEGPQNGWNDPPALNRVPKKKKMPENFMPPVPITSPIMNPSGDPQSQGLQQQPSTPGPLSSHASFPQQHLAGGQPFHGVQQPLAQTGMPPSFSKPNTEGAPGAPIGNTIQHVQALPTEKITKKPIPEEHLILKTTFEDLIQRCLSSATDPQTKRKLDDASKRLEFLYDKLREQTLSPTIINGLHSIARSIETRNYSEGLSVHTHIVSTSNFSETSAFMPVLKVVLSQASKLGV
- DYT1/WT [1]: DOWN
- DYT1/DYT1 + RTV [2]: DOWN
- DYT1/DYT1 + Sal [2]: DOWN
- RTV Corrective Direction [2]: Yes
- Sal Corrective Direction [2]: Yes
- WT + ISRIB/WT [3]: DOWN

Source: patent US20260266848A1, “COMPOSITIONS AND METHODS FOR DIAGNOSING AND TREATING DYSTONIA” (Duke University, priority 2023, published 2026)
